Measured values taken from patent US20220026427A1, “CELL BASED ASSAYS AND KITS FOR ASSESSING SERUM CHOLINERGIC RECEPTOR ACTIVITY” (Centre for Addiction and Mental Health, priority 2017, published 2022).
Where a name gives a salt, the structure may show the parent alone.

Tested on: cognitively intact healthy participants
Conditions: in vivo, iv
From the text: Cambridge Neuropsychological Test Automated Battery (CANTAB-AD):
Two main challenges are often encountered with many of the newer neurocognitive tasks. First is the lack of standardization in administering such tasks. Second is the lack of information on their psychometric properties. The Cambridge Neuropsychological Test Automated Battery (CANTAB) system addresses both of these challenges (www.cambridgecognition.com). The design of the CANTAB is based on well-established neurocognitive experimental paradigms. It was designed initially to provide componential analysis of cognitive functions in the elderly and individuals with dementia. The CANTAB Eclipse consists of 22 tasks that assess neurocognitive processes within a wide range of relatively independent cognitive domains, including visual memory, attention, working memory and problem solving. Each of the tasks is graded, allowing the assessment of patients with varying level of impairment. Increasing the difficulty of a task avoids a ceiling effect. Conversely, decreasing the difficulty of a task avoids a floor effect and allows the distinction between specific and generalized deficits (a concern discussed above). The tasks are automated and therefore testing is given in a standardized manner with a standardized feedback about accuracy and speed. […]

In the case of `CN1[C@@H]2C[C@@H](OC(=O)[C@H](CO)c3ccccc3)C[C@H]1[C@@H]1O[C@@H]12` [scopolamine, Scopolamine Hydrobromide], the “rti_5cmt difference score (Reaction Time, Five-choice movement time)” value was 132.8 milliseconds and the “rti_5crt difference score (Reaction Time, Five-choice reaction time)” value was 107.7 milliseconds.
